Experimental data as given in article PMC5024129, “Adipokinetic hormones and their G protein-coupled receptors emerged in Lophotrochozoa” (Scientific Reports, 2016).

The chains behind the UniProt entries cited, without tags or fusion partners. Residues count along the entry.
UniProt B1VCT5, 1-472: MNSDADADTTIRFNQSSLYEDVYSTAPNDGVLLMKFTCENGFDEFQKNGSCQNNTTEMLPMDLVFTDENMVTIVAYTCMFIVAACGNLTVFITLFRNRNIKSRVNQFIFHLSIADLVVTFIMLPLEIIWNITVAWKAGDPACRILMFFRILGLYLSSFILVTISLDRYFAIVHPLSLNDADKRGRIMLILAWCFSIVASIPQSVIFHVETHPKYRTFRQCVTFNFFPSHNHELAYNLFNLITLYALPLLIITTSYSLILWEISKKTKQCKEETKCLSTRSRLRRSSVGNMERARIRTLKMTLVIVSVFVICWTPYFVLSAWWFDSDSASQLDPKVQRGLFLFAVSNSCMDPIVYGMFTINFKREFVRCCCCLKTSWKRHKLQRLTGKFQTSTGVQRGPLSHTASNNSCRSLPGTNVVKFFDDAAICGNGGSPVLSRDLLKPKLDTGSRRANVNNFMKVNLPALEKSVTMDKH

What follows are molecules tested against C. gigas AKHR1-A (Magallana gigas, UniProt B1VCT5) (assay: Bioluminescence assay in CHO/G-16 cells stably expressing C. gigas AKHR1-A (apoaequorin, IP3/Ca2+ cascade)). Conditions: 10^−6 M peptide, CHO/G-16/AKHR1-A cells, Fig. 5A, n = 3.
Assay type: cell-based, Crassostrea gigas

| Structure (SMILES) | Bioluminescence response (activation) of AKHR1-A |
| --- | --- |
| CC(C)[C@H](NC(=O)[C@@H]1CCC(=O)N1)C(=O)N[C@H](C(=O)N[C@@H](Cc1ccccc1)C(=O)N[C@@H](CO)C(=O)N[C@@H](CCCNC(=N)N)C(=O)N[C@@H](CC(=O)O)C(=O)N[C@@H](Cc1c[nH]c2ccccc12)C(=O)N[C@@H](CO)C(=O)N1CCC[C@H]1C(N)=O)[C@@H](C)O | can be activated |
| CC(C)[C@H](NC(=O)[C@@H]1CCC(=O)N1)C(=O)N[C@H](C(=O)N[C@@H](Cc1ccccc1)C(=O)N[C@@H](CO)C(=O)N[C@@H](CCCCN)C(=O)NCC(=O)N[C@@H](Cc1c[nH]c2ccccc12)C(=O)NCC(=O)N1CCC[C@H]1C(N)=O)[C@@H](C)O | can be activated |
| CC(C)[C@H](NC(=O)[C@@H]1CCC(=O)N1)C(=O)N[C@H](C(=O)N[C@@H](Cc1ccccc1)C(=O)N[C@@H](CO)C(=O)N[C@@H](CCCNC(=N)N)C(=O)N[C@@H](CC(=O)O)C(=O)N[C@@H](Cc1c[nH]c2ccccc12)C(=O)N[C@@H](CC(N)=O)C(=O)N1CCC[C@H]1C(N)=O)[C@@H](C)O | can be activated |

The structures given here were assigned with low confidence; some may be wrong.
